Assay results: publication PMC9563463, “PARP1-MGMT complex underpins pathway crosstalk in O^6-methylguanine repair” (Journal of Hematology & Oncology, 2022)
No constants are given. Whether binding was seen depends on the method and setting. Binding seen in cells or lysates may run through a third protein. Some entries that bind do so weakly or less than the wild type.

The chains behind the UniProt entries cited, without tags or fusion partners.
UniProt P09874: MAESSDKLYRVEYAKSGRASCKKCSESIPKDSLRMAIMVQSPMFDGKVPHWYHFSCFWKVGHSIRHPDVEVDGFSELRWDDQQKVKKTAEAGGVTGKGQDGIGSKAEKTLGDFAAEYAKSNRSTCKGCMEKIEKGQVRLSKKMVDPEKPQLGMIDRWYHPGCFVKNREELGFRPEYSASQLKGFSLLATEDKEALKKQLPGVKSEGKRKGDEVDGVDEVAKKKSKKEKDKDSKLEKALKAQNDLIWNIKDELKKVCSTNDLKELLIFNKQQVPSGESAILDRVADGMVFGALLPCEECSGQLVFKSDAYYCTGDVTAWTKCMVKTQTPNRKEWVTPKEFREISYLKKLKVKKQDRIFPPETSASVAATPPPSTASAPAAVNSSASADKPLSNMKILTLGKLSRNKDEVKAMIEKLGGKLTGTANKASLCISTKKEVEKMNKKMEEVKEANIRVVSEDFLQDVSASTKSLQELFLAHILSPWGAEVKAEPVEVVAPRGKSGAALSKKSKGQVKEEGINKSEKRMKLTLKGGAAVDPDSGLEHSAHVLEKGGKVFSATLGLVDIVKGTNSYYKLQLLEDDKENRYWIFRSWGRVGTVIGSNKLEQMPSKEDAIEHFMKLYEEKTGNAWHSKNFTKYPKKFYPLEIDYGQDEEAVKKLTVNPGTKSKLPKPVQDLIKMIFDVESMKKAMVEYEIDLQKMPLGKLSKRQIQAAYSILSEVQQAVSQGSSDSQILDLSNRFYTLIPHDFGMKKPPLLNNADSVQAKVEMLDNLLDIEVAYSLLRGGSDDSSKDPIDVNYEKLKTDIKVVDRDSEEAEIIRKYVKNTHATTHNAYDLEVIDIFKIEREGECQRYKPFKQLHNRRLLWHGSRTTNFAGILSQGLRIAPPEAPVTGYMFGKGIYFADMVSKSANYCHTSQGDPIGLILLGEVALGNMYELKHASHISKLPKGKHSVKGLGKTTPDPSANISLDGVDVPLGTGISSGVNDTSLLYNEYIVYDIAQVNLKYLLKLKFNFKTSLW
UniProt P04406: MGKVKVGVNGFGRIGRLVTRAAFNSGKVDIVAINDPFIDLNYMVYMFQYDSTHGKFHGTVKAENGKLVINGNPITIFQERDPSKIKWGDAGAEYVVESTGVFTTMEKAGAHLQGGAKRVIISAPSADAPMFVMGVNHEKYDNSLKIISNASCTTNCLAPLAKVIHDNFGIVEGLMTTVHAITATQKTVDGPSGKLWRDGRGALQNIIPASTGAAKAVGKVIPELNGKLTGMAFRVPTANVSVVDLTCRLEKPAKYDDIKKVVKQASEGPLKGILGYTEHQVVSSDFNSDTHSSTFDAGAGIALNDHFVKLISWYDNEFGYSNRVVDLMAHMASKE
UniProt Q9UGN5: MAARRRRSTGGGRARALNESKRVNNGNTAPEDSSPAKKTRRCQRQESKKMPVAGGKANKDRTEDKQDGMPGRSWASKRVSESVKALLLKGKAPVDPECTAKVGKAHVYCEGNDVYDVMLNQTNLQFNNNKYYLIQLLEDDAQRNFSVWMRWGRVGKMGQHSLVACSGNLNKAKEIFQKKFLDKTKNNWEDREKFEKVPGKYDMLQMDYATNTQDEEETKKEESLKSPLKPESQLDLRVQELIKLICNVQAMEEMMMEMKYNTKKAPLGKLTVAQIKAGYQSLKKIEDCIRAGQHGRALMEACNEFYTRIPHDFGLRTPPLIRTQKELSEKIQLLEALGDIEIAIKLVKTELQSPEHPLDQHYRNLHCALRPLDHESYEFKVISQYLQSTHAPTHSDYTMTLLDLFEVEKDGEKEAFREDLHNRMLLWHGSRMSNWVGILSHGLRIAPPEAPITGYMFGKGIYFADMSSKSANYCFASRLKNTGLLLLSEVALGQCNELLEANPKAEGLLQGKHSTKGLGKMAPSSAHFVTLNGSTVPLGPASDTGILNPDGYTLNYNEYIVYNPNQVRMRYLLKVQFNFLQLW

Target: poly(ADP) ribose polymerase 1 (PARP1), endogenous (human (endogenous in EW-8)) (UniProt P09874)
Assay: co-IP; EW-8 cells with or without temozolomide (1 mM, 2 h); PARP1 pulled down, immunoblotting; IgG control

GAPDH, endogenous (from UniProt P04406 1-335)
binding: no binding

PARP2, endogenous (from UniProt Q9UGN5 1-583)
binding: binds
